Experimental data from PubChem BioAssay AID308 (DTP/NCI, 2004).
The list is a part of this screen's results and no random one: it is rich in T/C values a quarter to a half above the control, in often repeated tests (any T/C) and in doses without a T/C. Further doses and runs are listed elsewhere. T/C is the treated group as % of the vehicle group. Some entries give survivors of the animals treated and no T/C: the source holds a T/C of zero for them, seemingly a mark for toxic or unscored doses. Some doses without a T/C left all or most animals alive at the check, yet need not have been tolerated: survival well below the control is almost never listed, so the zero probably covers shortened survival too. Survivors were counted at the toxicity check, usually on the fifth day, unless a day is given; later deaths do not show. Schedules are NCI's codes, read here as Q, the interval in days (D) or hours (H), X, the number of doses. Some entries were tested several times; the results are listed from low to high. Some schedule codes hold Z or #, which are not explained here. Where survival is the endpoint, this PubChem deposit counts one and a half times the control or more as active, and values a quarter to a half above the control carry no call in these data; other NCI protocols may use other cut-offs. Some T/C values carry the count of animals alive at the toxicity check (mostly the fifth day); where none is given, no animal had died by that day. Signs of the kind (2×) stand for listed records that agree.

System: BDF1 mice, L1210 6-MP/6-TG resistant leukemia ip, survival T/C
Assay: NCI In Vivo Anticancer Drug Screen. Data for tumor model L1210 Leukemia resistant to 6-MP and 6-Thioguanine; NSC 755, NSC 752 (intraperitoneal) in B6D2F1 (BDF1) mice
Conditions: T/C endpoint: mean survival time, higher T/C = longer survival
Method: The antitumor activity of compounds was measured in mice bearing transplantable tumors. Survival or tumor size were measured and the results are expressed as the measurement made in the treated group (T) divided by the measurement made in the vehicle treated control group (C). The tumor model used in this assay is L1210 Leukemia resistant to 6-MP and 6-Thioguanine; NSC 755, NSC 752 (intraperitoneal) in B6D2F1 (BDF1) mice

[1] = dose: 15.0 mg/kg/injection, schedule: Q01DX Z (ip), vehicle: carboxymethylcellulose (CMC)
[2] = dose: 50.0 mg/kg/injection, schedule: Q01DX Z (ip), vehicle: carboxymethylcellulose (CMC)
[3] = dose: 100.0 mg/kg/injection, schedule: Q01DX Z (ip), vehicle: carboxymethylcellulose (CMC)
[4] = dose: 18.0 mg/kg/injection, schedule: Q01DX Z (ip), vehicle: carboxymethylcellulose (CMC)
[5] = dose: 500.0 mg/kg/injection, schedule: Q01DX Z (ip), vehicle: carboxymethylcellulose (CMC)
[6] = dose: 37.5 mg/kg/injection, schedule: Q01DX Z (ip), vehicle: carboxymethylcellulose (CMC)
[7] = dose: 150.0 mg/kg/injection, schedule: Q01DX Z (ip), vehicle: carboxymethylcellulose (CMC)
[8] = dose: 22.0 mg/kg/injection, schedule: Q01DX001 (ip), vehicle: saline
[9] = dose: 10.0 mg/kg/injection, schedule: Q01DX Z (ip), vehicle: carboxymethylcellulose (CMC)
[10] = dose: 20.0 mg/kg/injection, schedule: Q01DX Z (ip), vehicle: carboxymethylcellulose (CMC)
[11] = dose: 25.0 mg/kg/injection, schedule: Q01DX Z (ip), vehicle: carboxymethylcellulose (CMC)
[12] = dose: 200.0 mg/kg/injection, schedule: Q01DX Z (ip), vehicle: carboxymethylcellulose (CMC)

Q: What does the source list for `Nc1nc(SCc2ccccc2)c2[nH]cnc2n1`?
A: survivor count [1]: 6 of 6; survivor count [2]: 6 of 6; survivor count (dose: 75.0 mg/kg/injection, schedule: Q01DX Z (ip), vehicle: carboxymethylcellulose (CMC)): 6 of 6; survivor count [3]: 6 of 6

Q: Which survivor count (dose: 112.0 mg/kg/injection, schedule: Q01DX Z (ip), vehicle: saline) does the source give for `CCOC(=O)Sc1ncnc2nc[nH]c12` here?
A: 10 of 10

Q: `O=C(Nc1ccc(C2=NCCN2)cc1)c1ccc(C(=O)Nc2ccc(C3=NCCN3)cc2)c([N+](=O)[O-])c1` was tested. Which T/C (dose: 4.0 mg/kg/injection, schedule: Q01DX Z (ip), vehicle: methylcellulose (MC)) did it give?
A: 126 % of control

Q: What about the T/C (dose: 12.0 mg/kg/injection, schedule: Q01DX Z (ip), vehicle: carboxymethylcellulose (CMC)) of the same molecule?
A: 126 % of control

Q: And the T/C [4]?
A: 132 % of control

Q: And the survivor count (dose: 40.0 mg/kg/injection, schedule: Q01DX Z (ip), vehicle: carboxymethylcellulose (CMC))?
A: 9 of 10

Q: What about the T/C (dose: 40.0 mg/kg/injection, schedule: Q02DX010 (ip), vehicle: saline) of the same molecule?
A: 146 % of control

Q: What about the survivor count (dose: 90.0 mg/kg/injection, schedule: Q02DX010 (ip), vehicle: saline) of the same molecule?
A: 9 of 10

Q: And the survivor count (dose: 135.0 mg/kg/injection, schedule: Q02DX010 (ip), vehicle: saline)?
A: 3 of 10

Q: How did the T/C (dose: 0.5 mg/kg/injection, schedule: Q01DX Z (ip), vehicle: saline) turn out when `C1CN1c1nc(N2CC2)nc(N2CC2)n1` was run?
A: 149 % of control [5 of 6 alive]

Q: And the T/C (dose: 0.75 mg/kg/injection, schedule: Q01DX Z (ip), vehicle: saline)?
A: 133 % of control

Q: How did the T/C [5] turn out when `CS(=O)(=O)OCC(O)C(O)COS(C)(=O)=O` (centres undefined) was run?
A: 133 % of control

Q: For `CC(=O)Nc1ccc2nc3ccc(NC(C)=O)cc3[n+](-c3ccccc3)c2c1`, which T/C (dose: 7.5 mg/kg/injection, schedule: Q01DX Z (ip), vehicle: carboxymethylcellulose (CMC)) is on record?
A: 136 % of control

Q: What about the T/C [6] of the same molecule?
A: 141 % of control

Q: What about the T/C [3] of the same molecule?
A: 129 % of control

Q: What about the T/C [7] of the same molecule?
A: 129 and 144 % of control

Q: Which results are given for `O=C(Nc1ccc(C2=NCCN2)cc1)c1ccc(C(=O)Nc2ccc(C3=NCCN3)cc2)cc1`?
A: T/C (dose: 9.37 mg/kg/injection, schedule: Q01DX Z (ip), vehicle: carboxymethylcellulose (CMC)): 133 % of control; T/C [6]: 138 % of control; survivor count (dose: 250.0 mg/kg/injection, schedule: Q01DX Z (ip), vehicle: carboxymethylcellulose (CMC)): 3 of 6

Q: How did the survivor count (dose: 500.0 mg/kg/injection, schedule: Q01DX015 (ip), vehicle: other) turn out when `C=C(C)CSc1ncnc2nc[nH]c12` was run?
A: 1 of 6

Q: Which results are given for `Nc1nc(F)nc2c1ncn2C1OC(CO)C(O)C1O` (centres undefined)?
A: T/C (dose: 15.0 mg/kg/injection, schedule: Q01DX001 (ip), vehicle: saline): 97, 103, 106, 111 % of control; T/C [8]: 101, 107 [7 of 10 alive], 110 % of control; survivor count [8]: 9 of 10; survivor count (dose: 33.0 mg/kg/injection, schedule: Q01DX001 (ip), vehicle: saline): 6 of 10, 7 of 10, 8 of 10

Q: For `NC(Cc1ccc(N(CCCl)CCCl)cc1)C(=O)O` (centres undefined), which T/C (dose: 0.25 mg/kg/injection, schedule: Q01DX Z (ip), vehicle: carboxymethylcellulose (CMC)) is on record?
A: 144 % of control

Q: What about the T/C (dose: 1.87 mg/kg/injection, schedule: Q01DX Z (ip), vehicle: carboxymethylcellulose (CMC)) of the same molecule?
A: 135 % of control

Q: And the survivor count [9]?
A: 2 of 6

Q: And the survivor count [1]?
A: 4 of 6

Q: And the survivor count [10]?
A: 3 of 6

Q: With `Ic1ncnc2nc[nH]c12` as the molecule, how does the survivor count [5] read?
A: 1 of 6

Q: Which survivor count (dose: 640.0 mg/kg/injection, schedule: Q01DX Z (ip), vehicle: carboxymethylcellulose (CMC)) does the source give for `c1nc(SC2CCCC2)c2[nH]cnc2n1` here?
A: 2 of 6

Q: `S=c1nc[nH]c2c1ncn2C1CCCC1` was tested. Which T/C (dose: 30.0 mg/kg/injection, schedule: Q01DX015 (ip), vehicle: saline) did it give?
A: 127 % of control

Q: How did the survivor count (dose: 18.75 mg/kg/injection, schedule: Q01DX Z (ip), vehicle: carboxymethylcellulose (CMC)) turn out when `CCn1cnc2c(=S)nc[nH]c21` was run?
A: 6 of 6

Q: What about the survivor count [11] of the same molecule?
A: 6 of 6

Q: And the survivor count [6]?
A: 6 of 6

Q: What about the survivor count [12] of the same molecule?
A: 6 of 6

Q: For `COc1cc2c(c3c1c(=O)c1ccccc1n3C)C=CC(C)(C)O2`, which T/C (dose: 60.0 mg/kg/injection, schedule: Q01DX015 (ip), vehicle: carboxymethylcellulose (CMC)) is on record?
A: 126 % of control

Q: What about the T/C (dose: 80.0 mg/kg/injection, schedule: Q01DX015 (ip), vehicle: carboxymethylcellulose (CMC)) of the same molecule?
A: 128 % of control

Q: How did the T/C (dose: 28.0 mg/kg/injection, schedule: Q01DX Z (ip), vehicle: carboxymethylcellulose (CMC)) turn out when `S=c1nc[nH]c2nc[nH]c12` was run?
A: 94, 95, 97, 107 % of control

Q: And the survivor count (dose: 56.0 mg/kg/injection, schedule: Q01DX Z (ip), vehicle: carboxymethylcellulose (CMC))?
A: 6 of 6

Q: And the survivor count (dose: 80.0 mg/kg/injection, schedule: Q01DX010 (ip), vehicle: alkali diluted with saline)?
A: 10 of 10

Q: What about the T/C (dose: 91.0 mg/kg/injection, schedule: Q01DX001 (ip), vehicle: carboxymethylcellulose (CMC)) of the same molecule?
A: 93, 95, 102, 104, 108 % of control (2×)

Q: And the T/C (dose: 135.0 mg/kg/injection, schedule: Q01DX001 (ip), vehicle: carboxymethylcellulose (CMC), evaluated on day 45)?
A: 87, 99, 100, 102, 104, 105 % of control

Q: What about the T/C (dose: 135.0 mg/kg/injection, schedule: Q01DX001 (ip), vehicle: carboxymethylcellulose (CMC), run until all animals had died) of the same molecule?
A: 100 and 105 % of control

Q: For `CNS(=O)(=O)c1ncnc2nc[nH]c12`, which T/C (dose: 21.0 mg/kg/injection, schedule: Q01DX Z (ip), vehicle: carboxymethylcellulose (CMC)) is on record?
A: 130 % of control [5 of 6 alive]

Q: And the T/C (dose: 47.0 mg/kg/injection, schedule: Q01DX Z (ip), vehicle: carboxymethylcellulose (CMC))?
A: 142 % of control

Q: What does the source list for `CCSc1ncc(Br)c(Sc2nc(N)nc3nc[nH]c23)n1`?
A: survivor count [11]: 9 of 9; survivor count [2]: 10 of 10; survivor count [3]: 9 of 10; survivor count [12]: 10 of 10

Q: With `N#CCSc1ncnc2nc[nH]c12` as the molecule, how does the survivor count [2] read?
A: 6 of 6

Q: And the survivor count [7]?
A: 6 of 6

Q: And the survivor count [12]?
A: 0 of 6

Q: For `Nc1ncnc2[nH]ncc12`, which survivor count [10] is on record?
A: 6 of 6

Q: What about the survivor count [2] of the same molecule?
A: 5 of 6

Q: What about the survivor count [3] of the same molecule?
A: 0 of 6

Q: What about the survivor count [12] of the same molecule?
A: 0 of 6

Q: Which results are given for `Nc1nc(=S)c2[nH]cnc2[nH]1`?
A: survivor count (dose: 5.0 mg/kg/injection, schedule: Q01DX Z (ip), vehicle: carboxymethylcellulose (CMC)): 6 of 6; survivor count [9]: 6 of 6

Q: For `CCCCNc1ncnc2c1cnn2C`, which survivor count (dose: 250.0 mg/kg/injection, schedule: Q01DX Z (ip), vehicle: saline) is on record?
A: 0 of 6

Q: For `CC(C)Cn1cnc2c(Sc3c([N+](=O)[O-])ncn3C)nc(N)nc21`, which T/C (dose: 4.0 mg/kg/injection, schedule: Q01DX015 (ip), vehicle: other) is on record?
A: 125 % of control

Q: And the survivor count (dose: 100.0 mg/kg/injection, schedule: Q01DX015 (ip), vehicle: other)?
A: 10 of 10

Q: Which survivor count [4] does the source give for `N[C@@H](Cc1ccc(N(CCCl)CCCl)cc1)C(=O)O` here?
A: 6 of 6

Q: And the survivor count (dose: 24.0 mg/kg/injection, schedule: Q01DX Z (ip), vehicle: carboxymethylcellulose (CMC))?
A: 3 of 6

Q: And the survivor count (dose: 36.0 mg/kg/injection, schedule: Q01DX Z (ip), vehicle: carboxymethylcellulose (CMC))?
A: 1 of 6

Q: And the survivor count (dose: 54.0 mg/kg/injection, schedule: Q01DX Z (ip), vehicle: carboxymethylcellulose (CMC))?
A: 0 of 6

Q: How did the T/C (dose: 0.26 mg/kg/injection, schedule: Q02DX010 (ip), vehicle: carboxymethylcellulose (CMC)) turn out when `CN(Cc1cnc2nc(N)nc(N)c2n1)c1ccc(C(=O)N[C@@H](CCC(=O)O)C(=O)O)cc1` was run?
A: 132 % of control

Q: And the T/C (dose: 0.4 mg/kg/injection, schedule: Q02DX010 (ip), vehicle: carboxymethylcellulose (CMC))?
A: 132 % of control

Q: What does the source list for `CC1CCOS(=O)O1` (centres undefined)?
A: survivor count (dose: 150.0 mg/kg/injection, schedule: Q01DX Z (ip), vehicle: saline): 6 of 6; survivor count (dose: 200.0 mg/kg/injection, schedule: Q01DX Z (ip), vehicle: saline): 1 of 6; survivor count (dose: 300.0 mg/kg/injection, schedule: Q01DX Z (ip), vehicle: saline): 0 of 6
